The target of the test is T1, human Bcl10 (human) (UniProt O95999).
T1 sequence: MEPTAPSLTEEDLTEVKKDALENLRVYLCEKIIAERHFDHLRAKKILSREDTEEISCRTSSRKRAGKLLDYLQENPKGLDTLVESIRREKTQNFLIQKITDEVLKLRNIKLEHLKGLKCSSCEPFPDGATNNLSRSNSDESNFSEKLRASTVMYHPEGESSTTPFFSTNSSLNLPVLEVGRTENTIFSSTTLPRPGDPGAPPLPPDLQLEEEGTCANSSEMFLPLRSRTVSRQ
Briefly: two-hybrid; Matchmaker Gold Yeast Two-Hybrid System, Y2H Gold strain; bait and prey plasmids co-transformed; growth on SD/-Leu/-Trp/-His/-Ade/+X-α-gal, 30°C, 3–7 days.

No constants are given. Whether binding was seen depends on the method and setting. Binding calls can cover weak binding; strength is not graded here.

With “Nematostella vectensis type 1 paracaspase paralog "B" (NvPCASP-t1B)”, the binding result is recorded as “binds”.
As for “Nematostella vectensis type 1 paracaspase paralog "A" (NvPCASP-t1A)”, the binding entry is listed as “no binding”.
